Positions count from the first letter of the chain named. These are yes or no findings as the source states them, for the method shown. For some assays here: Binding seen in cells or lysates may run through a third protein. Some results given as binding are weak or reduced against the parent protein; the word gives no strength. Where a sequence is shown, tags or fusion partners need not be part of it.
Tests used:
[1] = target: T1, mouse ADAT3 A180V, His-tagged (mouse) (UniProt Q6PAT0); experiment: crystal structure; crystal structure of the mouse ADAT2/ADAT3-A180V complex at 2.9 Å; both purified
T1 sequence: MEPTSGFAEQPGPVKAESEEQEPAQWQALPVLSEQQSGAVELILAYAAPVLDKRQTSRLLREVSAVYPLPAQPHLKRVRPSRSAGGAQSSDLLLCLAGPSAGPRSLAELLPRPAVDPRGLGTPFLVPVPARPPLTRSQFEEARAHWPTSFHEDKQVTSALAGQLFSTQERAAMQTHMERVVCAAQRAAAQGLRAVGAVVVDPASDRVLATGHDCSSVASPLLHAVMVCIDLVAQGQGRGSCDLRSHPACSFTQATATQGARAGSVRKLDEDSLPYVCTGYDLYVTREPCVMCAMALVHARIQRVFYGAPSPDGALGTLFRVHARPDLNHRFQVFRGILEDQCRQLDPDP

Sequences of proteins named here, by UniProt entry; tags and fusion partners are left off.
UniProt Q6P6J0: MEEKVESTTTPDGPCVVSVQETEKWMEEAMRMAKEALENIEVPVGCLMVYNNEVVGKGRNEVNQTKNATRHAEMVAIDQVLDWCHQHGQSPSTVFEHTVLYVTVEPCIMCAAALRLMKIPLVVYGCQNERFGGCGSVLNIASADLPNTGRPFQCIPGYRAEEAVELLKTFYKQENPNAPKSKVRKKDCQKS

[2] = target: T2, mouse ADAT3 wild type, His-tagged (mouse) (UniProt Q6PAT0); experiment: pull-down; untagged ADAT2 co-expressed in E. coli with His-tagged ADAT3 (WT or mutant); His-tag affinity purification of the soluble fraction, SDS-PAGE
T2 sequence: T1 sequence with V180A

[3] = target: T3, mouse ADAT3 A180L, His-tagged (mouse) (UniProt Q6PAT0); experiment: as above
T3 sequence: T1 sequence with V180L

[4] = target: T1, mouse ADAT3 A180V, His-tagged (mouse); experiment: as above
[5] = target: T4, mouse ADAT3 V128M, His-tagged (mouse) (UniProt Q6PAT0); experiment: as above
T4 sequence: T1 sequence with V128M, V180A

binding [1]: binds
binding [2]: binds
binding [3]: binds
binding [4]: binds
binding [5]: binds
Substance: mouse ADAT2 (wild type, untagged) (from UniProt Q6P6J0 1-191) (enzyme)
